# According to the supplement of paper PMC8728848:
# Some of the results follow.
# B1: R2-fiber (Pseudomonas aeruginosa), Q9S576 (protein)
# chain: HHHHHHKVAKDLVVSLAYQVRTEDGVLVDESPVSAPLDYLHGHGSLISGLETALEGHEVGDKFDVAVGANDAYGQYDENLVQRVPKDVFMGVDELQVGMRFLAETDQGPVPVEITAVEDDHVVVDGNHMLAGQNLKFNVEVVAIREATEEELAHGHVHGAHDHHHDHDHDGCCGGHGHDHGHEHGGEGCCGGKGNGGCGCHENLYFQGVTAGMALAATDIPGLDASKLVSGVLAEQRLPVFARGLATAVSNSSDPNTATVPLMLTNHANGPVAGRYFYIQSMFYPDQNGNASQIATSYNATSEMYVRVSYAANPSIREWLPWQRCDIGGSFTKEADGELPGGVNLDSMVTSGWWSQSFTAQAASGANYPIVRAGLLHVYAASSNFIYQTYQAYDGESFYFRCRHSNTWFPWRRMWHGGDFNPSDYLLKSGFYWNALPGKPATFPPSAHNHDVGQLTSGILPLARGGVGSNTAAGARSTIGAGVPATASLGASGWWRDNDTGLIRQWGQVTCPADADASITFPIPFPTLCLGGYANQTSAFHPGTDASTGFRGATTTTAVIRNGYFAQAVLSWEAFGR
# How the values were obtained:
# Test in all cases: glycan array binding signal (z-score within array); higher = stronger binding
# Conditions in all cases: glycan notation: IUPAC condensed, linker removed
# [1] = target: Fuc(a1-2)[Gal(a1-3)]Gal(b1-4)GlcNAc(b1-2)Man(a1-3)[Fuc(a1-2)[Gal(a1-3)]Gal(b1-4)GlcNAc(b1-2)Man(a1-6)]Man(b1-4)GlcNAc(b1-4)GlcNAc
# Method in brief: (§1)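 The binding signal is a Z-score computed within each array. Data were drawn from 3228 arrays in the Consortium for Functional Glycomics database, restricted to those with a known protein sequence. Scores were averaged over arrays of the same protein sequence at different concentrations or buffers, and over linkers, and negative values can be taken as non-binding.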
# [2] = target: Fuc(a1-2)[Gal(a1-3)]Gal(b1-4)GlcNAc(b1-2)Man(a1-3)[Fuc(a1-2)[Gal(a1-3)]Gal(b1-4)GlcNAc(b1-2)Man(a1-6)]Man(b1-4)GlcNAc(b1-4)[Fuc(a1-6)]GlcNAc
# Method in brief: as §1
# [3] = target: Fuc(a1-2)[Gal(a1-3)]Gal(b1-4)GlcNAc(b1-3)GalNAc
# Method in brief: as §1
# [4] = target: Fuc(a1-2)[Gal(a1-3)]Gal(b1-4)GlcNAc(b1-3)[Fuc(a1-2)[Gal(a1-3)]Gal(b1-4)GlcNAc(b1-6)]GalNAc
# Method in brief: as §1
# [5] = target: Fuc(a1-2)[Gal(a1-3)]Gal(b1-4)GlcNAc(b1-6)GalNAc
# Method in brief: as §1
# [6] = target: Fuc(a1-2)[Gal(a1-3)]Gal(b1-4)[Fuc(a1-3)]Glc
# Method in brief: as §1
# [7] = target: Fuc(a1-2)[Gal(a1-3)]Gal(b1-4)[Fuc(a1-3)]GlcNAc
# Method in brief: as §1
# [8] = target: Fuc(a1-2)[Gal(a1-3)]Gal(b1-4)[Fuc(a1-3)]GlcNAc(b1-3)GalNAc
# Method in brief: as §1
# [9] = target: Fuc(a1-2)[Gal(a1-4)]Gal(b1-4)GlcNAc
# Method in brief: as §1
# [10] = target: Fuc(a1-2)[GalNAc(a1-3)]Gal
# Method in brief: as §1
# [11] = target: Fuc(a1-2)[GalNAc(a1-3)]Gal(b1-3)GalNAc(a1-3)[Fuc(a1-2)]Gal(b1-4)GlcNAc
# Method in brief: as §1
# [12] = target: Fuc(a1-2)[GalNAc(a1-3)]Gal(b1-3)GalNAc(b1-3)Gal(a1-4)Gal(b1-4)Glc
# Method in brief: as §1
# [13] = target: Fuc(a1-2)[GalNAc(a1-3)]Gal(b1-3)GlcNAc
# Method in brief: as §1
# [14] = target: Fuc(a1-2)[GalNAc(a1-3)]Gal(b1-3)GlcNAc(b1-2)Man(a1-3)[Fuc(a1-2)[GalNAc(a1-3)]Gal(b1-3)GlcNAc(b1-2)Man(a1-6)]Man(b1-4)GlcNAc(b1-4)GlcNAc
# Method in brief: as §1
# [15] = target: Fuc(a1-2)[GalNAc(a1-3)]Gal(b1-3)GlcNAc(b1-2)Man(a1-3)[Fuc(a1-2)[GalNAc(a1-3)]Gal(b1-3)GlcNAc(b1-2)Man(a1-6)]Man(b1-4)GlcNAc(b1-4)[Fuc(a1-6)]GlcNAc
# Method in brief: as §1
# [16] = target: Fuc(a1-2)[GalNAc(a1-3)]Gal(b1-3)GlcNAc(b1-3)GalNAc
# Method in brief: as §1
# [17] = target: Fuc(a1-2)[GalNAc(a1-3)]Gal(b1-3)GlcNAc(b1-6)GalNAc
# Method in brief: as §1
# [18] = target: Fuc(a1-2)[GalNAc(a1-3)]Gal(b1-4)Glc
# Method in brief: as §1
# [19] = target: Fuc(a1-2)[GalNAc(a1-3)]Gal(b1-4)GlcNAc
# Method in brief: as §1
# [20] = target: Fuc(a1-2)[GalNAc(a1-3)]Gal(b1-4)GlcNAc(b1-2)Man
# Method in brief: as §1
# [21] = target: Fuc(a1-2)[GalNAc(a1-3)]Gal(b1-4)GlcNAc(b1-2)Man(a1-3)[Fuc(a1-2)[GalNAc(a1-3)]Gal(b1-4)GlcNAc(b1-2)Man(a1-6)]Man(b1-4)GlcNAc(b1-4)GlcNAc
# Method in brief: as §1
# [22] = target: Fuc(a1-2)[GalNAc(a1-3)]Gal(b1-4)GlcNAc(b1-2)Man(a1-3)[Fuc(a1-2)[GalNAc(a1-3)]Gal(b1-4)GlcNAc(b1-2)Man(a1-6)]Man(b1-4)GlcNAc(b1-4)[Fuc(a1-6)]GlcNAc
# Method in brief: as §1
# [23] = target: Fuc(a1-2)[GalNAc(a1-3)]Gal(b1-4)GlcNAc(b1-3)Gal(b1-4)GlcNAc
# Method in brief: as §1
# [24] = target: Fuc(a1-2)[GalNAc(a1-3)]Gal(b1-4)GlcNAc(b1-3)Gal(b1-4)GlcNAc(b1-3)Gal(b1-4)GlcNAc
# Method in brief: as §1
# [25] = target: Fuc(a1-2)[GalNAc(a1-3)]Gal(b1-4)GlcNAc(b1-3)GalNAc
# Method in brief: as §1
# [26] = target: Fuc(a1-2)[GalNAc(a1-3)]Gal(b1-4)GlcNAc(b1-3)[Fuc(a1-2)[GalNAc(a1-3)]Gal(b1-4)GlcNAc(b1-6)]GalNAc
# Method in brief: as §1
# [27] = target: Fuc(a1-2)[GalNAc(a1-3)]Gal(b1-4)GlcNAc(b1-6)GalNAc
# Method in brief: as §1
# [28] = target: Fuc(a1-2)[GalNAc(a1-3)]Gal(b1-4)[Fuc(a1-3)]GlcNAc
# Method in brief: as §1
# [29] = target: Fuc(a1-2)[GalNAc(a1-3)]Gal(b1-4)[Fuc(a1-3)]GlcNAc(b1-3)GalNAc
# Method in brief: as §1
# [30] = target: Fuc(a1-2)[GalNAc(a1-4)]Gal(b1-4)GlcNAc
# Method in brief: as §1
binder,measurement,setting,value
B1,glycan array binding signal (z-score),[1],0.927
same,glycan array binding signal (z-score),[2],-1.12
same,glycan array binding signal (z-score),[3],-0.641
same,glycan array binding signal (z-score),[4],2.68
same,glycan array binding signal (z-score),[5],1.5
same,glycan array binding signal (z-score),[6],-0.426
same,glycan array binding signal (z-score),[7],0.442
same,glycan array binding signal (z-score),[8],0.175
same,glycan array binding signal (z-score),[9],-0.322
same,glycan array binding signal (z-score),[10],-0.494
same,glycan array binding signal (z-score),[11],-0.408
same,glycan array binding signal (z-score),[12],-0.479
same,glycan array binding signal (z-score),[13],-0.139
same,glycan array binding signal (z-score),[14],0.098
same,glycan array binding signal (z-score),[15],-0.288
same,glycan array binding signal (z-score),[16],-0.17
same,glycan array binding signal (z-score),[17],0.153
same,glycan array binding signal (z-score),[18],-0.903
same,glycan array binding signal (z-score),[19],-0.075
same,glycan array binding signal (z-score),[20],-0.942
same,glycan array binding signal (z-score),[21],-0.257
same,glycan array binding signal (z-score),[22],-0.483
same,glycan array binding signal (z-score),[23],0.935
same,glycan array binding signal (z-score),[24],0.713
same,glycan array binding signal (z-score),[25],-0.415
same,glycan array binding signal (z-score),[26],-0.341
same,glycan array binding signal (z-score),[27],-0.477
same,glycan array binding signal (z-score),[28],-0.636
same,glycan array binding signal (z-score),[29],3.46
same,glycan array binding signal (z-score),[30],-0.49

# 2 entries drawn at random from the list so far, as already listed:
binder,measurement,setting,value
B1,glycan array binding signal (z-score),[6],-0.426
same,glycan array binding signal (z-score),[16],-0.17
